Publication doi:10.1101/2025.03.23.644798 (bioRxiv, 2025)
Results are given in words; binding and its absence hold for the method and conditions named.

Target: R255L SpDAAO (Schizosaccharomyces pombe) (UniProt Q9Y7N4)
Assay: native gel or EMSA

binding: no binding
B1: R255L SpDAAO (enzyme, UniProt Q9Y7N4 1-348)
chain: MTKENKPRDIVIVGAGVIGLTTAWILSDLGLAPRIKVIAKYTPEDRSVEYTSPWAGANFCSISATDDNALRWDKITYHRFAYLAKTRPEAGIRFADLRELWEYEPKHDKIRSWNTYVRDFKVIPEKDLPGECIYGHKATTFLINAPHYLNYMYKLLIEAGVEFEKKELSHIKETVEETPEASVVFNCTGLWASKLGGVEDPDVYPTRGHVVLVKAPHVTETRILNGKNSDTYIIPRPLNGGVICGGFMQPGNWDLEIHPEDTLDILKRTSALMPELFHGKGPEGAEIIQECVGFRPSRKGGARVELDVVPGTSVPLVHDYGASGTGYQAGYGMALDSVMLALPKIKLA
